According to patent publication US12239713B2 (NOF CORPORATION, priority 2018, dated 2025):

Test: peptide made by a vendor (peptide synthesis; N-hydroxysuccinimide)
Settings: conjugation step

**Q.** What does the source list for “CSNLSTCVLGKLSQELHKLQTYPRTNTGSGTP (SEQ ID NO: 1)”?
**A.** final HPLC purity (UV 280 nm): 99%; conjugation yield (molar yield): 44%
